The test system of this data set is cyprids of A. amphitrite. In kind it is in vivo. The settings on record: 72 h. The method, then: Adult A. amphitrite (Cirripedia, Balanidae) were collected from boat docks at Port Mikrolimano and Floisvos, Athens, Greece. Animals were cleaned of epibionts with a small hard brush and meticulously identified as individuals of the species. Adult barnacles were kept in separate aerated glass tanks (20 L) containing 200-μm filtered natural seawater at 27 °C and a 12:12 L:D photoperiod. Tanks were fed with 24-h hatched Artemia sp. (Branchiopoda) nauplii and Tetraselmis suecica (Chlorodendrophyceae) and Skeletonema costatum (Bacillariophyceae) algae each day and seawater was changed on alternate days. Upon stress to induce oviposition (exposure to air for 24 h or immersion in fresh water for 5 h), adults were returned to seawater for larval release. Hatched nauplii were attracted to a point light source, collected and placed into a beaker containing 2 or 3 L of 0.7 μm GF/F (GE Healthcare, Little Chalfont, UK )-filtered natural seawater at a density of approximately 1–2 nauplii/mL with gentle aeration. Nauplii were maintained at 27 °C at a 12:12 L:D photoperiod on a diet of C. gracilis (Bacillariophyceae) provided at a density of 2 × 10^5 cells/mL. Cultured in these conditions, nauplii metamorphosed to cyprids in 5 days. Aliquots of these cyprids were collected with a wide-mouthed Pasteur pipette and aged at 4 °C for 1 day prior to use in settlement assays. Only batches of cyprids that were active and had numerous oil cells, representing energy reserves, were used in settlement assays.
Assays were conducted by adding 10 cyprids into individual wells of a 24-well polystyrene sterile microplate (Orange Scientific, Braine l’Alleud, Belgium) with 2 mL of artificial sea water (ASW) (25‰) and various concentrations of the chemical compounds as listed in Table 1. These experiments were repeated at least three times with four replicates for each concentration of any given compound (n = 120 cyprids/compound). Stock solutions for all compounds were prepared in methanol (Scharlab, Barcelona, Spain) and serial dilutions were prepared in 0.7 μm (GF/F, GE Healthcare, Little Chalfont, UK), filtered sea water to have a final concentration of 2.5% methanol in each assay solution. Plates were covered and sealed with Parafilm® to avoid evaporation and incubated at 25 °C away from any light source and examined after 24, 48 and 72 h. Each animal was inspected under a stereomicroscope and its condition was recorded. […] Both permanently attached and metamorphosed individuals were counted as settled or juveniles. The remainder were counted as ‘no metamorphosis’, i.e. animals that responded to light touch and were still cyprids at the end of the experiments with no overt signs of metamorphosis.
For EC50 or IC50 (the concentration that results in 50% stimulation or inhibition relative to the control) calculations in GraphPad Prism v.6, all data were fitted to the curve according to the following models for normalized response: Y = 100/(1 + 10^((X − LogIC50))) or Y = 100/(1 + 10^((LogEC50 − X))) depending on the trend of the curve.
For `C#CC=CCC1OC(C(Br)CC)CC(OC(C)=O)C(Cl)CC1Cl` (centres unmarked) [Compound 22, laurencienyne], the “Settlement/No Metamorphosis Ratio IC50/EC50” value came to 0.00 and the “Therapeutic Ratio (TR = LC50/IC50)” value came to 1297.0.

For the compound `CC(=CC=CC1(C)CCC(Br)C(C)(C)O1)C1CCC(C)(O)C(Br)C1` (centres unmarked) [Compound 20, O^11,15-cyclo-14-bromo-14,15-dihydrorogiol-3,11-diol], the “Settlement/No Metamorphosis Ratio IC50/EC50” value came out at 0.33 and the “Therapeutic Ratio (TR = LC50/IC50)” value was found to be 41.66.

For `C=CC(C)(O)CC[C@@H]1C(=C)CC[C@@H](Br)[C@@]1(C)CCC1OC1(C)C` (some centres unmarked) [Compound 18], the “Settlement/No Metamorphosis Ratio IC50/EC50” value came to 0.01 and the “Therapeutic Ratio (TR = LC50/IC50)” value stood at 64.37.

Regarding `C=C1CC[C@@](C)(c2ccc(C)cc2OC(C)=O)[C@H]1C` [Compound 2, debromoallolaurinterol acetate], the “Settlement/No Metamorphosis Ratio IC50/EC50” value was 0.54 and the “Therapeutic Ratio (TR = LC50/IC50)” value was 9.67.

Regarding `C#CC=CCC1OC(C=CC)CC=CCC1Cl` (centres unmarked) [Compound 21, (3Ε)-laurenyne], the “Settlement/No Metamorphosis Ratio IC50/EC50” value came to 575.00 and the “Therapeutic Ratio (TR = LC50/IC50)” value was determined as 32.40.

Consider `C=CC(C)(O)CCC1C(=C)CCC(Br)C1(C)CCC(Br)C(C)(C)O` (centres unmarked) [Compound 17], for which the “Settlement/No Metamorphosis Ratio IC50/EC50” value is 0.01.

Regarding `C=C1C[C@H](O)[C@H](Br)C(C)(C)[C@@]12CCC(C)=C(Cl)C2` [Compound 12, elatol], the “Settlement/No Metamorphosis Ratio IC50/EC50” value was found to be 0.64 and the “Therapeutic Ratio (TR = LC50/IC50)” value was determined as 1.45.

Regarding `C=C1CC[C@@](C)(c2cc(Br)c(C)cc2OC(C)=O)[C@H]1C` [Compound 3, allolaurinterol acetate], the “Settlement/No Metamorphosis Ratio IC50/EC50” value amounted to 0.02 and the “Therapeutic Ratio (TR = LC50/IC50)” value stood at 134.60.

Take `C=C(C1CCC(C)(O)C(Br)C1)C1C(Br)C2C(CCC2(C)O)C1(C)C` (centres unmarked) [Compound 19, neorogioldiol]: the “Settlement/No Metamorphosis Ratio IC50/EC50” value was found to be 0.01 and the “Therapeutic Ratio (TR = LC50/IC50)” value was found to be 758.07.

On to `CCC=CCC(Br)C(CC1OC(C=C=CBr)CC1OC(C)=O)OC(C)=O` (centres unmarked) [Compound 23, graciosallene], for which the “Settlement/No Metamorphosis Ratio IC50/EC50” value came out at 0.86.

With `C=CC(C)(O)CCC1C(=C)CCC(Br)C1(C)CCC(O)C(C)(C)Cl` (centres unmarked) [Compound 16], the “Settlement/No Metamorphosis Ratio IC50/EC50” value was 0.04.

On to `Cc1cc2c(cc1Br)C1(C)CCC(C)(O2)C1C` (centres unmarked) [Compound 5, filiformin], for which the “Settlement/No Metamorphosis Ratio IC50/EC50” value is on record as 44.84.

For `CC1(C(Br)CO)CC=C2C(C1)C(O)CC1C2(C)CCC(Br)C1(C)C` (centres unmarked) [Compound 14, 3,15-dibromo-7,16-dihydroxy-isopimar-9(11)-ene], the “Settlement/No Metamorphosis Ratio IC50/EC50” value was 0.00 and the “Therapeutic Ratio (TR = LC50/IC50)” value stood at 126.43.

Turning to `C=C1CC[C@@](C)(c2ccc(C)cc2)[C@H]1C` [Compound 1, laurene], the “Therapeutic Ratio (TR = LC50/IC50)” value is 1.82.

For the compound `CC1=C2CC[C@@](C)(Cl)[C@@H](Br)C[C@]2(C)[C@@H](C)[C@@H](Br)[C@@H]1O` [Compound 9, perforenol], the “Settlement/No Metamorphosis Ratio IC50/EC50” value was 0.01 and the “Therapeutic Ratio (TR = LC50/IC50)” value came to 98.28.

As for `CC(C)C1=C2CCC(C)C2CC(C)(C)C1O` (centres unmarked) [Compound 8, 4-hydroxy-5-brasilene], the “Settlement/No Metamorphosis Ratio IC50/EC50” value stood at 1.28 and the “Therapeutic Ratio (TR = LC50/IC50)” value is given as 0.85.

Consider `CC(C)[C@H]1CC(C)(C)[C@@H](O)C2=C1CC[C@H]2C` [Compound 7, epibrasilenol], for which the “Settlement/No Metamorphosis Ratio IC50/EC50” value was 0.19 and the “Therapeutic Ratio (TR = LC50/IC50)” value was 2.43.

`CC(=O)OCC(Br)C1(C)CC=C2C(C1)C(O)CC1C2(C)CC(OC(C)=O)C2CC21C` (centres unmarked) [Compound 15, deoxyparguerol 16-acetate]: the “Settlement/No Metamorphosis Ratio IC50/EC50” value turned out to be 0.07 and the “Therapeutic Ratio (TR = LC50/IC50)” value was found to be 6.45.

On to `CC1=CC[C@@]2(C)C(=C(C)C(=O)[C@@H](O)[C@@H]2C)CC1` [Compound 10, perforenone A], for which the “Settlement/No Metamorphosis Ratio IC50/EC50” value amounted to 0.08 and the “Therapeutic Ratio (TR = LC50/IC50)” value is listed as 6.17.

`Cc1cc(O)c(C2(C)CCC3CC32C)cc1Br` (centres unmarked) [Compound 6, laurinterol]: the “Settlement/No Metamorphosis Ratio IC50/EC50” value came out at 0.08 and the “Therapeutic Ratio (TR = LC50/IC50)” value stood at 1.82.

Regarding `Cc1ccc(C2(C)CCC(=CBr)C2C)c(O)c1` (centres unmarked) [Compound 4, iso-laurenisol], the “Settlement/No Metamorphosis Ratio IC50/EC50” value is on record as 0.06 and the “Therapeutic Ratio (TR = LC50/IC50)” value was 8.24.

With `CC(C)[C@@H]1CC=C[C@H]2[C@H]3[C@](C)(CC[C@]12CBr)[C@@H](Br)CC[C@@]3(C)O` [Bromosphaerol, reference compound], the “Settlement/No Metamorphosis Ratio IC50/EC50” value is reported as 1.49 and the “Therapeutic Ratio (TR = LC50/IC50)” value was determined as 2.99.

`C=CC(C)(O)CC[C@H](Br)[C@@]1(C)CC[C@H](Br)C(C)(C)O1` (some centres unmarked) [Compound 13, obtusenol]: the “Settlement/No Metamorphosis Ratio IC50/EC50” value is on record as 0.01 and the “Therapeutic Ratio (TR = LC50/IC50)” value is given as 7.99.

The values are drawn from publication PMC6891695, “Evaluation of Antifouling Potential and Ecotoxicity of Secondary Metabolites Derived from Red Algae of the Genus Laurencia” (Marine Drugs, 2019).
